From patent US8012471B2, “Screening and treatment methods using IGS5 enzymes of the metalloprotease family” (Abbott Healthcare Products B.V., priority 1999, dated 2011)
At least one structure is not confirmed: it was looked up by name or label, or the drawing left a doubt. No end group written: not given here.

Protein sequences, listed by entry. Tags and fused reporters are not part of them. Lines headed by an entry give the natural chain unless they say otherwise; changes in a name come on top.
UniProt Q495T6: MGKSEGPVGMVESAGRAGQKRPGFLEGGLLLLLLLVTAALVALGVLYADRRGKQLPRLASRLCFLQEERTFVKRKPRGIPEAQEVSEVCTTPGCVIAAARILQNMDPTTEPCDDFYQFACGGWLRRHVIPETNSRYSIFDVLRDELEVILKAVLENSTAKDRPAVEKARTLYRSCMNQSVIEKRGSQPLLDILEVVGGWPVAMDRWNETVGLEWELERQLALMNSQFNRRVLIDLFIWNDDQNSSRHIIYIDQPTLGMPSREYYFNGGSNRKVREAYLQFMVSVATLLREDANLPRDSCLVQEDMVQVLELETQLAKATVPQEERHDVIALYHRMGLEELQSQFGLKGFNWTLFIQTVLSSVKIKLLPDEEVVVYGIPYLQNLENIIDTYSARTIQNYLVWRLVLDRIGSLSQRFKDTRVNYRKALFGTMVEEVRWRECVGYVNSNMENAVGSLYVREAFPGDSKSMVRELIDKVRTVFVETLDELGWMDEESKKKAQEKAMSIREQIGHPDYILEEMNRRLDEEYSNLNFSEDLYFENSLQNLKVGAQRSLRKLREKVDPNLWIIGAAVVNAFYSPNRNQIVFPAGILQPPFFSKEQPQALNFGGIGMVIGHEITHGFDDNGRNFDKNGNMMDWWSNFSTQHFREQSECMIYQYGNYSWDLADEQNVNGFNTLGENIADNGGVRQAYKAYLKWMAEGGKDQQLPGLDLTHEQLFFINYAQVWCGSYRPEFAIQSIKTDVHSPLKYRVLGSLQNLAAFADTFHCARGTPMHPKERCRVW

Legend:
[1] = molecular target: T1, IGS5 polypeptide (His6-tagged IGS5 ectodomain) (Homo sapiens, UniProt Q495T6, V306M); test: Hydrolysis of vasoactive peptides and PACAP(1-27) by IGS5 polypeptide (HPLC); assay type: biochemical
T1 construct: made in house; host or cells: Spodoptera frugiperda Sf9 (baculovirus IGBV73)
T1 sequence (Q495T6 with tags, fused parts or gaps V306M): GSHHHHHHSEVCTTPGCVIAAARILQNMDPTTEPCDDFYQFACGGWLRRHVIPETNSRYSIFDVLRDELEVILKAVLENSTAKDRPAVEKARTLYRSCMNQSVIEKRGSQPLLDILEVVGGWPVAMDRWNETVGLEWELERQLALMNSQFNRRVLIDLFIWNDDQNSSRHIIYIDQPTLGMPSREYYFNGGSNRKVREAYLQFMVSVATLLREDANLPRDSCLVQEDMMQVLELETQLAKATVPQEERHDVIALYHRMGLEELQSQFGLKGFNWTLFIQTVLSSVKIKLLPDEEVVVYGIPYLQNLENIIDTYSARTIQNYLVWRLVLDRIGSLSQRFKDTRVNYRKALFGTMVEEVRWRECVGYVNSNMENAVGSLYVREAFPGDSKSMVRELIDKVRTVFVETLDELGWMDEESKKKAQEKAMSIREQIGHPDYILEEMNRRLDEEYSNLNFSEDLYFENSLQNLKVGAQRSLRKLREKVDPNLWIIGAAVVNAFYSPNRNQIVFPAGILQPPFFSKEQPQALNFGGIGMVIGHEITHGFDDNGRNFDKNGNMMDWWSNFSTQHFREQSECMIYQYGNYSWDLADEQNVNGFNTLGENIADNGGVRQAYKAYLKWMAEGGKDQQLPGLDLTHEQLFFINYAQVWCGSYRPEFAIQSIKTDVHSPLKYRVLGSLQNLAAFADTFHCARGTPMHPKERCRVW
Experimental: The enzymatic activity of IGS5 polypeptides of the invention was tested with regard to the metabolism of biologically active peptides. In particular it was tested whether these IGS5 polypeptides may act on a variety of vasoactive peptides known in the state of the art e.g. such like atrial natriuretic peptide (ANP), bradykinin, big endothelin (Big ET-1), endothelin (ET-1), substance P and angiotensin-1. In the context of the present invention in particular it was tested whether the IGS5 ectodomain, which is a novel human metalloprotease, hydrolyzes said vasoactive peptides. For comparison the assay was also performed for a known member of the metalloprotease family which was described earlier as soluble secreted endopeptidase (SEP) by Ikeda, Emoto et al. (J. Biol. Chem., Vol. 274 (1999): pp. 32469-32477). […]
Peptides were detected by absorbance at 214 nm (UV spectroscopy) and/or by fluorescence with an excitation wavelength of 328 nm and an emission wavelength of 393 nm.
% Hydrolysis: For detection of substrate cleavage, the percentage of hydrolysis was calculated by directly comparing the substance peak areas in HPLC traces of the sample without addition of any IGS5 enzyme activity (blank) and of the samples with addition of IGS5 enzyme (sample). % hydrolysis was calculated on basis of the respective peak areas. % hydrolysis=100*(1−(Asample/Ablank))

[2] = molecular target: T2, SEP (soluble secreted endopeptidase) (Mus musculus, UniProt Q9JLI3); conditions: 100 μl assay volume; 10 μg partially purified SEP; 0.5 μM substrate; 12 h, 37° C.; cited from earlier work
T2 sequence (Q9JLI3 1-765): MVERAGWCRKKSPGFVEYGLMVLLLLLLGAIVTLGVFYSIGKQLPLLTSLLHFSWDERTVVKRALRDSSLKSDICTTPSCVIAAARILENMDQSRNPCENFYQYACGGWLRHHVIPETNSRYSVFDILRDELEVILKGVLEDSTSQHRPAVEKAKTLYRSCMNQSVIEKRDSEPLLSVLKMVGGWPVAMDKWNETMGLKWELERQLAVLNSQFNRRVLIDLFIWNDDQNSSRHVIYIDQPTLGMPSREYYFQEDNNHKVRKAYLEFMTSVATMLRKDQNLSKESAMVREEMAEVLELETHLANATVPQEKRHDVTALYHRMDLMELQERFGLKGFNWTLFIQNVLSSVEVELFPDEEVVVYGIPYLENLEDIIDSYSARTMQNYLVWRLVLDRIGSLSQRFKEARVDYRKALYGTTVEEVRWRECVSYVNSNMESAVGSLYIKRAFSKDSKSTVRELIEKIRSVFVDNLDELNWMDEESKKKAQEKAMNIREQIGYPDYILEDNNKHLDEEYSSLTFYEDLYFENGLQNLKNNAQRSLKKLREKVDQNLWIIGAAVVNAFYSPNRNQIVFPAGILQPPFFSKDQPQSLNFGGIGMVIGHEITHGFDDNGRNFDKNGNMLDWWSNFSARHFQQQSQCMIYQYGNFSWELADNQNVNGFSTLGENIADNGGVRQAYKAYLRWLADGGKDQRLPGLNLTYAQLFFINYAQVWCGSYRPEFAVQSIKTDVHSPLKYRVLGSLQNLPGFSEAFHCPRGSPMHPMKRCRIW

In the case of RPPGFSPFR [Bradykinin, bradykinin], the “Hydrolysis by IGS5 in vitro (result in words)” value [1] is given as “hydrolyze” and the “% Hydrolysis by SEP (Ikeda, Emoto et al., 1999)” value [2] is given as greater than 95%.
